Record: PubChem BioAssay AID1508597 (Cure First, 2020)
This is an unselected part of the about 2,100 reagents, under one of the conditions tested. 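Calls flag viability under 80% in either arm, not effects specific to rucaparib; the reference for percent is not stated.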 Some reagents were tested in more than one well and are listed for each. The record does not give: the 100% reference.

Assay: 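Survival screen with siRNA in ovarian cancer cells derived from patients, with or without rucaparib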 (primary screen)
Cells: human ovarian carcinoma lines grown from tumours: OCI-P5x (papillary serous) and OCI-C5x (clear cell)
Knock-down reagent: siRNA pool against human genes, 1.25 pmol siRNA per well
Duration: 72 h or 96 h, depending on the cell culture
Conditions: rucaparib 20 µM (about IC30) or vehicle, present until read-out
Rucaparib or vehicle: Vehicle
Cell line: OCI-C5x (clear cell)
Read-out: 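ATP luminescence measured at 72 or 96 h according to the culture, then normalised and expressed as percent viability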
Direction: viability, normalised: higher = more viable cells remaining
Call rule: 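Active when normalised viability falls below 80 percent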
Meaning of the calls: active = viability under 80%; inactive = viability 80% or more

{"gene": "NRXN1 (GeneID 9378)", "technical replicate": "1", "viability, normalised (%)": 43, "outcome": "active"}
{"gene": "NRXN1 (GeneID 9378)", "technical replicate": "2", "viability, normalised (%)": 38.2, "outcome": "active"}
{"gene": "NRXN1 (GeneID 9378)", "technical replicate": "3", "viability, normalised (%)": 47.6, "outcome": "active"}
{"gene": "BTAF1 (GeneID 9044)", "technical replicate": "1", "viability, normalised (%)": 50, "outcome": "active"}
{"gene": "BTAF1 (GeneID 9044)", "technical replicate": "2", "viability, normalised (%)": 28.9, "outcome": "active"}
{"gene": "BTAF1 (GeneID 9044)", "technical replicate": "3", "viability, normalised (%)": 28.7, "outcome": "active"}
{"gene": "FANCC (GeneID 2176)", "technical replicate": "1", "viability, normalised (%)": 65.6, "outcome": "active"}
{"gene": "FANCC (GeneID 2176)", "technical replicate": "2", "viability, normalised (%)": 55.1, "outcome": "active"}
{"gene": "FANCC (GeneID 2176)", "technical replicate": "3", "viability, normalised (%)": 68.6, "outcome": "active"}
{"gene": "CTCFL (GeneID 140690)", "technical replicate": "1", "viability, normalised (%)": 39.5, "outcome": "active"}
{"gene": "CTCFL (GeneID 140690)", "technical replicate": "2", "viability, normalised (%)": 53.2, "outcome": "active"}
{"gene": "CTCFL (GeneID 140690)", "technical replicate": "3", "viability, normalised (%)": 44.1, "outcome": "active"}
{"gene": "MORC2 (GeneID 22880)", "technical replicate": "1", "viability, normalised (%)": 36.4, "outcome": "active"}
{"gene": "MORC2 (GeneID 22880)", "technical replicate": "2", "viability, normalised (%)": 36.6, "outcome": "active"}
{"gene": "MORC2 (GeneID 22880)", "technical replicate": "3", "viability, normalised (%)": 40.9, "outcome": "active"}
{"gene": "SMPD3 (GeneID 55512)", "technical replicate": "1", "viability, normalised (%)": 61.3, "outcome": "active"}
{"gene": "SMPD3 (GeneID 55512)", "technical replicate": "2", "viability, normalised (%)": 62.6, "outcome": "active"}
{"gene": "SMPD3 (GeneID 55512)", "technical replicate": "3", "viability, normalised (%)": 55.8, "outcome": "active"}
{"gene": "NEK8 (GeneID 284086)", "technical replicate": "1", "viability, normalised (%)": 57, "outcome": "active"}
{"gene": "NEK8 (GeneID 284086)", "technical replicate": "2", "viability, normalised (%)": 40.5, "outcome": "active"}
{"gene": "NEK8 (GeneID 284086)", "technical replicate": "3", "viability, normalised (%)": 41.2, "outcome": "active"}
{"gene": "CILK1 (GeneID 22858)", "technical replicate": "1", "viability, normalised (%)": 48, "outcome": "active"}
{"gene": "CILK1 (GeneID 22858)", "technical replicate": "2", "viability, normalised (%)": 52.2, "outcome": "active"}
{"gene": "CILK1 (GeneID 22858)", "technical replicate": "3", "viability, normalised (%)": 50.3, "outcome": "active"}
{"gene": "BID (GeneID 637)", "technical replicate": "1", "viability, normalised (%)": 32.8, "outcome": "active"}
{"gene": "BID (GeneID 637)", "technical replicate": "2", "viability, normalised (%)": 39.3, "outcome": "active"}
{"gene": "BID (GeneID 637)", "technical replicate": "3", "viability, normalised (%)": 30.2, "outcome": "active"}

6 entries from above, sorted by “viability, normalised (%)”, low to high:
{"gene": "NEK8 (GeneID 284086)", "technical replicate": "2", "viability, normalised (%)": 40.5, "outcome": "active"}
{"gene": "NEK8 (GeneID 284086)", "technical replicate": "3", "viability, normalised (%)": 41.2, "outcome": "active"}
{"gene": "SMPD3 (GeneID 55512)", "technical replicate": "3", "viability, normalised (%)": 55.8, "outcome": "active"}
{"gene": "NEK8 (GeneID 284086)", "technical replicate": "1", "viability, normalised (%)": 57, "outcome": "active"}
{"gene": "SMPD3 (GeneID 55512)", "technical replicate": "1", "viability, normalised (%)": 61.3, "outcome": "active"}
{"gene": "SMPD3 (GeneID 55512)", "technical replicate": "2", "viability, normalised (%)": 62.6, "outcome": "active"}

Continued.
{"gene": "IGHMBP2 (GeneID 3508)", "technical replicate": "1", "viability, normalised (%)": 43.1, "outcome": "active"}
{"gene": "IGHMBP2 (GeneID 3508)", "technical replicate": "1", "viability, normalised (%)": 58.4, "outcome": "active"}
{"gene": "IGHMBP2 (GeneID 3508)", "technical replicate": "2", "viability, normalised (%)": 46.4, "outcome": "active"}
{"gene": "IGHMBP2 (GeneID 3508)", "technical replicate": "2", "viability, normalised (%)": 40.8, "outcome": "active"}
{"gene": "IGHMBP2 (GeneID 3508)", "technical replicate": "3", "viability, normalised (%)": 56.4, "outcome": "active"}
{"gene": "IGHMBP2 (GeneID 3508)", "technical replicate": "3", "viability, normalised (%)": 58.6, "outcome": "active"}
{"gene": "ASF1B (GeneID 55723)", "technical replicate": "1", "viability, normalised (%)": 42.6, "outcome": "active"}
{"gene": "ASF1B (GeneID 55723)", "technical replicate": "2", "viability, normalised (%)": 36.2, "outcome": "active"}
{"gene": "ASF1B (GeneID 55723)", "technical replicate": "3", "viability, normalised (%)": 32.3, "outcome": "active"}
{"gene": "MYLK3 (GeneID 91807)", "technical replicate": "1", "viability, normalised (%)": 109, "outcome": "inactive"}
{"gene": "MYLK3 (GeneID 91807)", "technical replicate": "2", "viability, normalised (%)": 63.2, "outcome": "active"}
{"gene": "MYLK3 (GeneID 91807)", "technical replicate": "3", "viability, normalised (%)": 50.4, "outcome": "active"}
{"gene": "KAT2A (GeneID 2648)", "technical replicate": "1", "viability, normalised (%)": 58.4, "outcome": "active"}
{"gene": "KAT2A (GeneID 2648)", "technical replicate": "2", "viability, normalised (%)": 54.3, "outcome": "active"}
{"gene": "KAT2A (GeneID 2648)", "technical replicate": "3", "viability, normalised (%)": 72.2, "outcome": "active"}
